# Source: PubChem BioAssay AID540256 (National Center for Advancing Translational Sciences (NCATS), 2011)
# The whole screen tested about 300,000 compounds, of which about 3,700 (1.2%) were called active. The inconclusive results got no clear call from the source; some entries with a clear call stand among them for comparison. The call rests on the fitted dose curve; tested in HEK293 cells. Potencies beside an inconclusive call are fits to weak or partial responses and may not hold up.
# Test: qHTS for Inhibitors of binding or entry into cells for Lassa Virus; further: nearly all actives have a fitted effect of over 50% in size
# Conditions: Lassa virus pseudotype entry inhibition, cell reporter; activity change, negative = inhibition: at 37.9 µM (top of the series) unless noted
# On the % scale 0 is the no-effect control and ±100 the full control effect; potency means the concentration at half of the fitted maximal effect.
Compound,"activity change, negative = inhibition",Potency
Cc1ccc(-c2noc(CN(C3CCCCC3)S(=O)(=O)c3ccc(C)cc3)n2)cc1,inactive: -15.3% [at 46.1 µM],–
Cc1ccc2[nH]cc(C(=O)NCc3cccs3)c(=O)c2c1,–,"inconclusive: 8.2 µM [inhibitor, partial curve, poor fit]"
CCCCn1c(=O)c(C(=O)Nc2ccccc2)c(O)c2ccccc21,inactive: 15.4%,–
Cc1ccc(-n2cccn2)c(CN2CCCC(C(=O)c3sccc3C)C2)c1 (stereo not drawn),–,"inconclusive: 6.31 µM [inhibitor, partial curve, poor fit]"
COc1cc(C(=O)NCC(c2cccnc2)N2CCN(c3ccc(F)cc3)CC2)cc(OC)c1OC (stereo not drawn),–,"inconclusive: 14.1 µM [inhibitor, single point]"
COc1ccccc1CNC(=O)CSC1=NCCS1,inactive: -5.86%,–
O=C(Nc1sc2c(c1C(=O)O)CCC2)c1ccccc1Cl,–,"inconclusive: 12.6 µM [inhibitor, partial curve, poor fit]"
Cc1cccc(-c2nc3c(C#N)c[nH]n3c2NC2CCCCC2)c1,inactive: -6.38% [at 46.1 µM],–
O=C(Nc1nc2ccc(F)cc2s1)C1CCN(S(=O)(=O)c2cc([N+](=O)[O-])ccc2Cl)CC1,–,"inconclusive: 14.1 µM [inhibitor, partial curve, poor fit]"
c1ccc(-n2cnc3cc(NCc4ccco4)ccc32)cc1,–,"inconclusive: 22.4 µM [inhibitor, partial curve, poor fit]"
COc1cccc(C(C#N)N2N=C(C)CC2(C)C)c1O (stereo not drawn),–,"inconclusive: 20.6 µM [activator, single point]"
CCCCCc1ccc(OCCC[n+]2ccccc2)c(CCCCC)c1,–,"inconclusive: 12.6 µM [inhibitor, single point]"
C[n+]1cccc(C2C(C#N)=C(N)Oc3c2ccc2ccccc32)c1 (stereo not drawn),–,"inconclusive: 8.91 µM [inhibitor, partial curve]"
COc1ccc(C(C)(C)NC(=O)C2CCC(=O)N(C3CCCC3)C2)cc1OC (stereo not drawn),inactive: 11.1%,–
Cc1ccc2c(c1)cc(CN(Cc1cccs1)C(=O)c1ccco1)c1nnnn12,–,active: 16.4 µM
CCC(NC(=O)COC(=O)C1CC2CCCC(C1)C2=O)c1ccc(Br)cc1 (stereo not drawn),–,"inconclusive: 11.2 µM [activator, single point]"
CCOC(=O)C1=C(CSc2nc(CC)c(C)cc2C#N)OC(N)=C(C#N)C1c1ccc(OC)cc1 (stereo not drawn),inactive: -1.38%,–
Cc1ccc([C@H]2C[C@H](n3cc(-c4ccc(F)cc4)nn3)[C@@H](O)CN2C(=O)C2CCCCC2)cc1,–,"inconclusive: 25 µM [inhibitor, partial curve]"
CN(C)CCCN(C(=O)/C=C/c1cccs1)c1nc2c(F)cccc2s1,–,"inconclusive: 3.16 µM [inhibitor, full curve]"
N#Cc1ccc(Cn2cc(C(=O)c3ccco3)c3ccccc32)cc1,–,"inconclusive: 1.46 µM [activator, full curve]"
Fc1ccccc1OCCn1c(=S)[nH]c2ccccc21,inactive: 3.63%,–
CCCN(CCC)C(=O)Cn1c(=O)n(Cc2ccc(C(=O)NCCc3ccc(OC)c(OC)c3)cc2)c(=O)c2ccccc21,inactive: 9.09% [at 46.1 µM],–
c1ccc(Cn2c(CNc3nc4ccccc4n3CCN3CCCCC3)nc3ccccc32)cc1,–,"inconclusive: 35.5 µM [inhibitor, single point]"

# Part of the list above in order of molar mass, falling:
Compound,"activity change, negative = inhibition",Potency
Cc1ccc([C@H]2C[C@H](n3cc(-c4ccc(F)cc4)nn3)[C@@H](O)CN2C(=O)C2CCCCC2)cc1,–,"inconclusive: 25 µM [inhibitor, partial curve]"
Cc1ccc(-c2noc(CN(C3CCCCC3)S(=O)(=O)c3ccc(C)cc3)n2)cc1,inactive: -15.3% [at 46.1 µM],–
O=C(Nc1sc2c(c1C(=O)O)CCC2)c1ccccc1Cl,–,"inconclusive: 12.6 µM [inhibitor, partial curve, poor fit]"
Fc1ccccc1OCCn1c(=S)[nH]c2ccccc21,inactive: 3.63%,–
COc1cccc(C(C#N)N2N=C(C)CC2(C)C)c1O (stereo not drawn),–,"inconclusive: 20.6 µM [activator, single point]"

# Next structures

Compound,"activity change, negative = inhibition",Potency
CN(C(=O)c1ccc(S(=O)(=O)N2CCCCC2)cc1)C1CCS(=O)(=O)C1 (stereo not drawn),–,"inconclusive: 0.224 µM [activator, full curve]"
CCOC(=O)c1[nH]c(C)c(CC(C)C)c1C,–,"inconclusive: 22.4 µM [inhibitor, partial curve, poor fit]"
Cc1ccc(-n2c(CCC(=O)O)ccc2-c2cccs2)cc1,inactive: 8.67% [at 14.3 µM],–
O=C(Cc1cccs1)Nc1ccc2c(c1)C(=O)OC2,–,"inconclusive: 32.6 µM [inhibitor, single point]"
Clc1ccccc1Cn1nnc(-c2cccs2)n1,inactive: 5.71%,–
CC(CCN(C)C)OC(=O)c1ccc(C(C)c2ccccc2)o1 (stereo not drawn),inactive: 3.42%,–
COc1ccccc1OC(C)C(=O)Nc1ccc(S(=O)(=O)Nc2nccs2)cc1 (stereo not drawn),–,"inconclusive: 3.16 µM [inhibitor, single point]"
COc1ccccc1CNC(=O)CCS(=O)(=O)c1ccc2c(c1)CCCN2C(C)=O,–,"inconclusive: 3.55 µM [inhibitor, partial curve, poor fit]"
Cc1ccc(NC(=O)CNC(=O)C2CCCCC2)nc1,inactive: 3.96%,–
Cn1c(-c2ccc(F)cc2)cnc1SCC(=O)N1CCCCC1,–,"inconclusive: 9.2 µM [inhibitor, partial curve, poor fit]"
Clc1ccc(-c2noc(CN3CCOCC3)n2)cc1,–,"inconclusive: 1.26 µM [activator, full curve, poor fit]"
Cc1ccc(-c2csc(NC(=O)c3ccc(F)cc3)c2C(=O)O)cc1,–,"inconclusive: 11.2 µM [inhibitor, single point]"
CCN(CC)CCn1c(SCC(=O)NCc2ccccc2)nc2c(sc3ccccc32)c1=O,–,"inconclusive: 35.5 µM [inhibitor, single point]"
Cc1nn(Cc2ccccc2Cl)c(C)c1NC(=O)c1noc2c1CCCCC2,–,"inconclusive: 18.3 µM [inhibitor, partial curve, poor fit]"
OC(COCc1ccccc1)CN1CCCC1 (stereo not drawn),–,"inconclusive: 7.3 µM [inhibitor, partial curve, poor fit]"
COc1ccc(C(=O)NCC(c2ccccc2)c2ccccc2)cc1S(=O)(=O)N1CCOCC1,–,"inconclusive: 12.6 µM [inhibitor, partial curve, poor fit]"
N#Cc1ccc(CN2CCN(C(=O)CNC(=O)Cc3cccc4ccccc34)CC2)cc1,–,"inconclusive: 10 µM [inhibitor, partial curve, poor fit]"
O=C(Nc1nnc(S(=O)(=O)N2CCCc3ccccc32)s1)c1ccccc1Br,–,"inconclusive: 17.8 µM [inhibitor, single point]"
CN(C)S(=O)(=O)Nc1ccc2c(c1)Cc1ccccc1-2,–,"inconclusive: 32.6 µM [activator, single point]"
CCOC(=O)CNC(=O)CSc1nc(NCc2ccccc2)nc(N(C)C)n1,–,"inconclusive: 35.5 µM [inhibitor, single point]"
O=C(O)CCCCCn1c(SCC(=O)c2ccc(O)c(O)c2)nc2ccsc2c1=O,–,"inconclusive: 1.26 µM [activator, single point]"
NC(=O)c1cc2cc(Cl)ccc2o/c1=N/NC(=O)c1cccs1,–,"inconclusive: 9.2 µM [activator, partial curve, poor fit]"
CC1(C(=O)N/N=C/c2cc3c(cc2Br)OCO3)CC1(Br)Br (stereo not drawn),inactive: -0.778%,–

Compound,"activity change, negative = inhibition",Potency
CN1CCN(C(=O)Cn2c(C(F)(F)F)nc3ccccc32)CC1,–,"inconclusive: 4.47 µM [activator, partial curve]"
O=C1Nc2cc(Br)ccc2C1(O)c1ccccc1O (stereo not drawn),inactive: -21.8% [at 46.1 µM],–
O=C(NC1=C(Nc2ccc(Cl)cc2)C(=O)c2ccccc2C1=O)c1ccccc1,–,"inconclusive: 7.08 µM [inhibitor, full curve, poor fit]"
COc1ccc(-c2cc3nc(C4CCN(C(=O)OC(C)(C)C)CC4)c(C(=O)Nc4cc(Cl)cc(Cl)c4)cn3n2)cc1,inactive: -16.2% [at 46.1 µM],–
O=C(c1cnccn1)N1CCN(S(=O)(=O)c2ccc3ccccc3c2)CC1,inactive: -1.12%,–
Cc1sc(NC(=O)Cn2c(=O)oc3ccccc32)nc1-c1ccc(Cl)cc1,inactive: 1.8%,–
CCOC(=O)N/N=C/c1ccc(N(CC)CC)cc1O,–,active: 4.47 µM
NC(=O)CSc1nc2c(c(=O)n1-c1ccccc1)C1(CCCCC1)Cc1ccccc1-2,–,"inconclusive: 20 µM [inhibitor, partial curve, poor fit]"
CCOc1ccc(C(=O)NC(C(=O)NCCc2ccc(OC(F)F)cc2)C(C)C)cc1 (stereo not drawn),–,"inconclusive: 11.2 µM [inhibitor, partial curve, poor fit]"
CCOc1ccc2oc(C(=O)NCC(c3ccco3)N(C)C)c(C)c2c1 (stereo not drawn),–,"inconclusive: 5.01 µM [inhibitor, full curve, poor fit]"
COc1cccc(NC(c2nnc(-c3ccccc3)o2)c2ccc(F)cc2Cl)c1 (stereo not drawn),inactive: 6.73% [at 46.1 µM],–
CCC(C)(C)C1CCC(=NNC(=O)c2ccc(Br)o2)CC1 (stereo not drawn),–,"inconclusive: 14.1 µM [activator, partial curve, poor fit]"
CCc1cccc(Nc2cc(C)nc3ncnn23)c1,–,"inconclusive: 1.84 µM [inhibitor, partial curve, poor fit]"
CC(C)(C)c1ccc(C(=O)Nc2nc3nc(-c4ccccc4)cc(=O)n3[nH]2)cc1,inactive: -1.86% [at 46.1 µM],–
COc1ccc(Br)cc1CNC(=O)CN1C(=O)CCCc2ccccc21,inactive: -33.8% [at 46.1 µM],–
O=C(CCc1nnc(Cc2ccc(-c3ccccc3)cc2)o1)N1CCCC1,–,"inconclusive: 7.08 µM [inhibitor, partial curve, poor fit]"
CCc1ccc(OCC(=O)N2CC(C(N)=O)Oc3ccccc32)cc1 (stereo not drawn),inactive: 2.58%,–
CN(C)c1ccc(N=Nc2ccccc2C(=O)OCC(=O)N(C)C2CCCCC2)cc1,–,"inconclusive: 29.1 µM [inhibitor, single point]"
CN(C)C(CNC(=O)c1cccc(S(=O)(=O)N(C)C)c1)c1ccccc1 (stereo not drawn),–,"inconclusive: 25.1 µM [activator, partial curve, poor fit]"
Cc1ccc(-c2noc(-c3ccccc3Br)n2)cc1,–,"inconclusive: 17.8 µM [inhibitor, single point]"
Cc1occc1-c1nnc(SCC(=O)N2CCOCC2)o1,inactive: 10.6%,–
CN(C)c1ccc(-c2nc3ccccc3n2C)cc1,–,"inconclusive: 9.2 µM [inhibitor, partial curve, poor fit]"
